# No constants are given. Whether binding was seen depends on the method and setting. Binding seen in cells or lysates may run through a third protein. Binding calls can cover weak binding; strength is not graded here. Sequences can lack the tags named with a protein.
# What was measured:
# [1] = biological target: T1, SNPC-4::3xFlag (C. elegans) (UniProt P91868); assay: co-IP; anti-Flag IP of SNPC-4::3xFlag from worm lysate, western blot with anti-Ollas; the sample collected during oogenesis (gravid worms) alone; benzonase-treated lysate, 150 mM NaCl, 0.1% NP-40, 4°C, FLAG peptide elution
# T1 sequence: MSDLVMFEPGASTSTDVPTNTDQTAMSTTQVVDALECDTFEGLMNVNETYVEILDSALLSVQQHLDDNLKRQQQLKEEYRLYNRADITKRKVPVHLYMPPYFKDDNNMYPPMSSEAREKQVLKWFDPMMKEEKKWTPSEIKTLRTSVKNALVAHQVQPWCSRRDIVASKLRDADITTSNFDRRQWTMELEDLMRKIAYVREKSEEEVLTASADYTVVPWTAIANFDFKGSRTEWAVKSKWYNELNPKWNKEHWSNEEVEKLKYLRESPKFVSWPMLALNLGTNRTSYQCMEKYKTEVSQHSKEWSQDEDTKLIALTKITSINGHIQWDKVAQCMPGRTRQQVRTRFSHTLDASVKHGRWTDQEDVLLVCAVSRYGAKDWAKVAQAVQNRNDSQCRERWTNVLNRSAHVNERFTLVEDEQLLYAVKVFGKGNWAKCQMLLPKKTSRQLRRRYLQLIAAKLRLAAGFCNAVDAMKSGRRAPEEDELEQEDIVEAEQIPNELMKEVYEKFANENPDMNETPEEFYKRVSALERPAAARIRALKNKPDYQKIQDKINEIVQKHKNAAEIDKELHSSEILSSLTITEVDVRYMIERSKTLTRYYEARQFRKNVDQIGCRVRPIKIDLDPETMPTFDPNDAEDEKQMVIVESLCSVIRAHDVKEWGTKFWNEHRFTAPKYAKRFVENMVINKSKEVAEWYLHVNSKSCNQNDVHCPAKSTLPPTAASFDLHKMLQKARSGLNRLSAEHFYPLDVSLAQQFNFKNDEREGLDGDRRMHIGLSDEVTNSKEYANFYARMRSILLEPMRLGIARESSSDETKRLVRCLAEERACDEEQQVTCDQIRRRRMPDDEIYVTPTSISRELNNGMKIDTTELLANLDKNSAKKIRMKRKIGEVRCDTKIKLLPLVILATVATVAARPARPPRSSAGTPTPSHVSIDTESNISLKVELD
# [2] = biological target: T1, SNPC-4::3xFlag (C. elegans); assay: co-IP; anti-Flag IP of SNPC-4::3xFlag from worm lysate, western blot with anti-Ollas; worms collected during spermatogenesis (L4) and oogenesis (gravid); benzonase-treated lysate, 150 mM NaCl, 0.1% NP-40, 4°C, FLAG peptide elution
substance,measurement,setting,value
SNPC-1.3::Ollas (C. elegans),binding,[1],binds weakly
same,binding,[2],binds
